Drawing on publication PMC12685520, this text covers binding for two substances.

By UniProt entry, the sequences of proteins in these tests, tags left out. Where a name states a change or a piece, a line headed by the entry shows the natural chain unless it says otherwise. Residues count along the entry.
UniProt Q8IZ07: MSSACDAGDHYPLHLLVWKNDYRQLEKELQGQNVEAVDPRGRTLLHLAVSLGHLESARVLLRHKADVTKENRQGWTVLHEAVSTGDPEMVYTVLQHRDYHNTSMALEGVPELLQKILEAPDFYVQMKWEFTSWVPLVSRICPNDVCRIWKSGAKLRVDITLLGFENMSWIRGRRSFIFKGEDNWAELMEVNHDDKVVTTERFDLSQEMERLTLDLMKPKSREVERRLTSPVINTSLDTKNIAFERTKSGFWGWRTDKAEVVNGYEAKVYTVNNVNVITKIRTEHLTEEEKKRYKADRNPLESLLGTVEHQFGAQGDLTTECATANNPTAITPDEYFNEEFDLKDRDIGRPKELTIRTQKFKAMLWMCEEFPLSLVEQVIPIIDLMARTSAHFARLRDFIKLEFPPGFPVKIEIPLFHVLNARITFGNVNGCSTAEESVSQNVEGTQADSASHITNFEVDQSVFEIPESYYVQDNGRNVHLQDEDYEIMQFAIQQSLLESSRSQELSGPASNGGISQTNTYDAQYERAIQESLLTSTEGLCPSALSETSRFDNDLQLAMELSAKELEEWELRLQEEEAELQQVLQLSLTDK
3xFLAG-ANKRD13A ΔAR (102–590 a.a.): residues 103-590 of Q8IZ07
UniProt Q99623: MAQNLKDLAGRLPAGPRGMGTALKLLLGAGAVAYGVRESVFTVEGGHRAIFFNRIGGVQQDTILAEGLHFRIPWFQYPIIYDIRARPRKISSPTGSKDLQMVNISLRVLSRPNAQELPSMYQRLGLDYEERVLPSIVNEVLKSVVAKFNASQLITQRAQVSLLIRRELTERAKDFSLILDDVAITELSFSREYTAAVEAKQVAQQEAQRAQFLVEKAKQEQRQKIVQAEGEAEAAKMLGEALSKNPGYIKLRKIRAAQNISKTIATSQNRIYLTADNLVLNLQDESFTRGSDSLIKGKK

No constants are given. Whether binding was seen depends on the method and setting. Binding seen in cells or lysates may run through a third protein. Some entries that bind do so weakly or less than the wild type.

In assay [1] the target is 3xFLAG-ANKRD13A (wild-type) (human) (UniProt Q8IZ07). Briefly: co-IP; immunoprecipitation (Fig. S2B; legend not shown), basal and OA-treated cells.
In assay [2] the target is 3xFLAG-ANKRD13A ΔAR (102–590 a.a.) (human) (UniProt Q8IZ07). Described as above.
The target of assay [3] is PHB2-StrepII-FLAG (human) (UniProt Q99623). Briefly: condition: only with epoxomicin (200 nM) added to OA; co-IP; as a4, cells treated with OA + epoxomicin (200 nM) for 4 h.
For assay [4] the target is unchanged. Briefly: pull-down; Strep-Tactin resin followed by anti-FLAG pull-down of PHB2-StrepII-FLAG from HeLa Parkin cells (DMSO or OA 4 h), Western blot. (In general: In western blotting, separated proteins are transferred to a membrane and probed.)
Assay [5] deals with prohibitin 2 (PHB2), endogenous (human (endogenous in HeLa)) (UniProt Q99623). Briefly: co-IP; endogenous proteins in HeLa Parkin cells, DMSO or OA 4 h; cells incubated with 2 mM DSP at 4 °C for 2 h before lysis; immunoprecipitation with anti-PHB2 or anti-ANKRD13A antibodies.
Assay [6] has as its target PHB2-StrepII-FLAG (human) (UniProt Q99623). Briefly: co-IP; anti-FLAG M2 immunoprecipitation from HeLa Parkin cells expressing FLAG-tagged constructs, DMSO or OA 4 h; 25 mM Hepes pH 7.4, 150 mM NaCl, 1 mM EDTA, 10 mM NEM; overnight 4 °C; Western blot; in one panel the immunoprecipitates were incubated with the USP2 catalytic domain for 40 min (interaction with PHB2 markedly reduced).

Regarding “Valosin-containing protein (from UniProt P55072 1-806) (enzyme)”, the binding entry in assay [1] and in assay [2] was “binds” each time.
For “ankyrin repeat domain-containing protein 13 A (ANKRD13A), endogenous (from UniProt Q8IZ07 1-590)”, the binding result in assay [3] is given as “no binding”; in assay [4] it was “binds”; in assay [5], “binds”; in assay [6] it was “binds”.
